Source: paper PMC4063703
Results are given in words; binding and its absence hold for the method and conditions named. In cells and extracts the contact can be indirect. Some binding calls cover weakened binding; strength is not graded here. Sequences can lack the tags named with a protein.

Target: T1, Yth1-3flag (fission yeast) (UniProt Q9UTD1)
T1 sequence: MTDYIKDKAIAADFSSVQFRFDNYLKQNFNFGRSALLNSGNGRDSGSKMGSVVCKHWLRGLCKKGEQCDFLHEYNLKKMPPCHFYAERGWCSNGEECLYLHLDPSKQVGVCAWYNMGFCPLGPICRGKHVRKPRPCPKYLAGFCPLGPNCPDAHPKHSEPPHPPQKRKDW
Assay: co-IP; clarified fission yeast extracts (50 mM HEPES pH 7.6, 75 mM KCl, 1 mM MgCl2, 1 mM EGTA, 0.1% Triton) incubated 60 min at 4°C with Protein A Dynabeads carrying the antibody; western blot; cycling cells or cells in early mitosis (nda3KM311); with or without Swd2.2, with or without Ppn1, extracts treated or not with RNase A

binding: binds
B1: Pfs2-GFP (protein, UniProt Q9UTN4 1-509)
chain: MERAENARIIQKPMTRRTVDYGSGLSKYIVNRHLRSNRYHIHVPRPNPNQIINLYPPYEYKYNNTSSLCTKYIHTSANKARHVINVVRWTPDGRRLLTGSSTGEFTLWNGLTFNFELINQSHDYAVRCAEWSTDGRWLISGDGGGMVKYFEPNLNNVKIVQAHEMEVRDVAFSPNDSKFVTASDDGSLKVWNFHMSTEELKLTGHGWDVKTVDWHPSKGLLASGSKDNLVKFWDPRTGTCIATLHGHKNTIMQASFQKNFGSNYLATVSRDSTCRVFDLRAMKDVRVLRGHEKDVNCVTWHPLYPNLLTTGGSDGSVNHYSLDEPPLLSQQKYHEKHPNVTLSASSYLLYPTAEIPFAHDLGIWSMQYHPLGHLLCTGSNDKTTRFWSRSRPDDKESTMDRHHLGEEQSEAMLSQRKAAIEEDDNYEPDENPLTETLANAHNPQFSGVLNLPGLGTMPSFPSPYQHGQPQIPGMLHASLSNSYAEPSTQNSFIPGLTSKSQDGYPQNYR
